For test [1], the target named is wild-type H2A.Z-YFP (mouse) (UniProt P0C0S6). Description: co-IP; immunoprecipitation with GFP antibodies of the YFP-tagged histone from dox-induced transgenic ESCs (endogenous H2A.Z knockdown background), immunoblot of the partners; uninduced cells (No DOX) as negative controls; densitometry in ImageJ.
Test [2] shares this target. Described as above. This is another data set of the same source.

Protein sequences, listed by entry. Tags and fused reporters are not part of them. Lines headed by an entry give the natural chain unless they say otherwise; changes in a name come on top.
UniProt P0C0S6: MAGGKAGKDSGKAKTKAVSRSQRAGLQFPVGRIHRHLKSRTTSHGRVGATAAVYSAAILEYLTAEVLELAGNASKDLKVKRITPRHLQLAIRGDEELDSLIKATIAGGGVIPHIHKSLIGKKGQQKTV
UniProt P60122: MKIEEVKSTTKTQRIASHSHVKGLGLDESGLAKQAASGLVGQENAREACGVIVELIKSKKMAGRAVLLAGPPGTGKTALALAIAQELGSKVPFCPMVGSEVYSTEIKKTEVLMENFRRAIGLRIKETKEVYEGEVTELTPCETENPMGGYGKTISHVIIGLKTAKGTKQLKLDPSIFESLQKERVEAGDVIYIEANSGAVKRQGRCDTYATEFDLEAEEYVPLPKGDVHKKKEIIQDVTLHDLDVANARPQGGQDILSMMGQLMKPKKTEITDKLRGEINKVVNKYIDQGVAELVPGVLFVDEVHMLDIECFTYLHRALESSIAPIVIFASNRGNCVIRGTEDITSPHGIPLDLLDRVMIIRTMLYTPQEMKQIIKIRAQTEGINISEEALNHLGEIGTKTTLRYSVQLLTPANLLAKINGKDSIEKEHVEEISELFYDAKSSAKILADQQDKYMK

Read-outs that look alike come from different tables or passages of the source. These are yes or no findings as the source states them, for the method shown. Binding seen in cells or lysates may run through a third protein. Some results given as binding are weak or reduced against the parent protein; the word gives no strength.

For the molecule RUVBL1 (from UniProt P60122 1-456), the binding entry in test [1] is “binds”.

B1: NAP1L1 (protein, UniProt P28656 1-391)
chain: MADIDNKEQSELDQDLEDVEEVEEEETGEETKIKARQLTVQMMQNPQILAALQERLDGLVDTPTGYIESLPKVVKRRVNALKNLQVKCAQIEAKFYEEVHDLERKYAVLYQPLFDKRFEIINAIYEPTEEECEWKPDEEDEVSEELKEKAKIEDEKKDEEKEDPKGIPEFWLTVFKNVDLLSDMVQEHDEPILKHLKDIKVKFSDAGQPMSFVLEFHFEPNDYFTNEVLTKTYRMRSEPDDSDPFSFDGPEIMGCTGCQIDWKKGKNVTLKTIKKKQKHKGRGTVRTVTKTVSNDSFFNFFAPPEVPENGDLDDDAEAILAADFEIGHFLRERIIPRSVLYFTGEAIEDDDDDYDEEGEEADEEGEEEGDEENDPDYDPKKDQNPAECKQQ
In the case of B1, in test [2], the binding result was “binds”.
